# Values joined by “and” are separate entries in the source; they are usually repeats but may differ in a detail not shown here. Equal entries are not always repeated.
# Tested on: fPSA and tPSA
# Experiment: Tumor PSA ELISA, castrate male mice bearing LNCaP-AR tumors treated with vehicle or MDV3100 (Table 14)
# Format: in vivo, human
# Conditions: individual mice, listed as MDV
# Protocol: Mice were injected with ^89Zr-5A10, and at the indicated time point post injection, were sacrificed for PSA analysis. Tumor tissues were surgically excised. fPSA and total PSA (“tPSA”) were determined with PSA-directed ELISA, and the values were normalized to total protein concentration. fPSA concentrations are reported as average ng/ml(a), total PSA (“tPSA”) concentrations are reported as ng/mL (b), and total protein concentrations are reported as ng/mg (c). ELISAs were conducted as follows for PSA detection in serum and tumor tissues. fPSA and tPSA were measured with a dual-label immunofluorometric assay (DELFIA Prostatus™ PSA Free/Total PSA; Perkin-Elmer Life Sciences) according to manufacturer's recommendations. This assay measured fPSA and complexed PSA (cPSA) in an equimolar fashion^8, and the cross-reactivity of PSA-ACT for fPSA was <0.2%^9. […] For detection, the 1235 automatic immunoassay system from Perkin-Elmer Life Sciences was used. cPSA concentrations were calculated by subtracting fPSA from tPSA.
# As expected, each dose of MDV3100 inhibited AR signaling and fPSA synthesis (Table 14). Table 14 provides data regarding tumor analysis of PSA expression levels via ELISA in castrate male mice bearing LNCaP-AR tumors treated with antiandrogens. Castrate male mice bearing LNCaP-AR xenografts received a daily oral gavage of vehicle (VEH #), 10 mg/kg (MDV10 #), 40 mg/kg (MDV40 #), or 80 mg/kg (MDV80 #). Six days post manipulation, mice were injected with ^89Zr-5A10. Twenty four hours post injection, mice were sacrificed for PSA analysis. Tumor tissues were surgically excised. fPSA and tPSA were determined with PSA-directed ELISA (as above), and in the case of intratumoral PSA, the values were normalized to total protein concentration. ^afPSA concentrations are reported as ng/ml, ^btotal PSA concentrations are reported as ng/mL, ^ctotal protein concentrations are reported as ng/mg. Abbreviations: fPSA, fPSA; tPSA, total PSA.
smiles,measurement,setting,value
CNC(=O)c1ccc(N2C(=S)N(c3ccc(C#N)c(C(F)(F)F)c3)C(=O)C2(C)C)cc1F [MDV3100],Total Protein,"10 mg/kg daily oral gavage, 10 mg/kg",5.82 ng/mg and 6.92 ng/mg and 4.50 ng/mg and 9.20 ng/mg
same,Total Protein,"40 mg/kg daily oral gavage, 40 mg/kg",6.13 ng/mg and 7.04 ng/mg and 6.50 ng/mg
same,Total Protein,"80 mg/kg daily oral gavage, 80 mg/kg",5.05 ng/mg and 7.52 ng/mg and 5.74 ng/mg

# — patent US12685791B2, “Free PSA antibodies as diagnostics, prognostics and therapeutics for prostate cancer” (Memorial Sloan Kettering Cancer Center, priority 2011, dated 2026)
